Test results from the supplement of paper PMC7125110.
± gives the standard error. The uncertainty is large for many entries.

B1: glmS ribozyme (parent)
chain: AUAAAAGCGCCAGAACUACAGAAAUGUAGUUGACGAGGAGGAGGUUUAUCGAAUUUUCGGCGGAUGCCUCCAAA

Variants of: B1
Assay: kcat; higher = faster cleavage; RNA array
Conditions: with glucosamine-6-phosphate
In short: (§1)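 Sequenced MiSeq chips were the platform: E. coli RNA polymerase transcribed barcoded ribozyme variants on them in situ, and a hybridised Cy3 probe tracked these at 37 °C. After glucosamine-6-phosphate (40 μM to 10 mM) in HEPES/KCl/Mg(OAc)2 buffer was flowed in, tiles were imaged over ~14 h. Signals normalised to baseline and to non-cleaving reference variants were reduced to per-tile medians and fit to one- or two-exponential decays to obtain kobs. kcat and KM were derived through weighted Michaelis–Menten fits across concentrations.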
For AUAAAAGCGCCACUACUACAGAAAUGUAGUUGACGAGGAGGAGGUUUAUCGAAUUUUCGGCGGAUGCUUCCAAA [G13C A14U C68U], the kcat was 1.07e-05 ± 1.2e-06 s⁻¹. In the case of AUAAAAGCGCCUGAACUACAGAAAUGUAGUUGACGAGGAGGAGGUUUAUCGAAUUAUCGGCGGAUGCCUCCAAA [A12U U56A], the kcat is reported as 0.0897 ± 0.049 s⁻¹. For AUAAAAGCGCCACAACUACAGAAAUGUAGUUCACGAGGAGGAGGUUCAUCGAAUUUUCGGCGGAUGCCUCCAAA [G13C G32C U47C], the kcat was 2.34e-05 ± 1.7e-05 s⁻¹. Work on AUAAAUGCGCCAGAACUACAGAAAUGUAGAUGACGAGGAGGAGGUUUAUCGAAUUUUCGGCGGAUGCCUCCAAA [A6U U30A] yielded a kcat of 3.27e-05 ± 4.2e-06 s⁻¹. AUAAAAGCGCGAGCACUACAGAAAUGUAGUUGACGAGGAGGAGGUUUAUCGAAUUUUCGGCGGAUGCCACCAAA [C11G A14C U69A] was tested, and the kcat was 6.08e-05 ± 6e-05 s⁻¹. For AUAAAAGCGGCAGAACUACAGAAAUGUAGUUGACGAGGAGGAGGUUUAUCGAAUUUUCGGCGGAUGGCUCCAAA [C10G C67G], the kcat was 1.02e-05 ± 7.4e-06 s⁻¹. With AUAAAAGCGCCAGCACUACAGAAAUGUAGUUGACGAGGAGGAGGUUUAUCGAAUAUUCGGCGGAUGCAUCCAAA [A14C U55A C68A] the kcat was 3.34e-05 ± 2.5e-05 s⁻¹. In the case of AUAAAAGCGCCAUAACUACAGAAAUGUAGUUGACGAGGAGGAAGUUUAUCGAAUUUUCGGCGGAUGCCUCCAAA [G13U G43A], the kcat is reported as under 1e-05 s⁻¹. AUAAAAGCGCCAGUACUACAGAAAUGUAGUUGACGAGGAGGAGGUUUAUCGAAUUUUCGGAGGAUGCCUCCAAA [A14U C61A] gave a kcat of 2.96e-05 ± 2.1e-05 s⁻¹. Work on AUAAACGCGCCAGAACUACAGAAAUGUAGUUGACGAGGGGGAGGUUUAUCGAAUUUUCGGCGGAUGCCUCCAAA [A6C A39G] yielded a kcat of 6.38e-05 ± 7.8e-07 s⁻¹. AUAAAAGCGCCGGAACUACAGAAAUGUAGUUGACGAGGAGGAGGUUUAUCGAAUUUUCGGCGCAUGCCUCCAAA [A12G G63C] gave a kcat of under 1e-05 s⁻¹. Work on AUAAAAACGCCAGAAUUACAGAAAUGUAGUUGACGAGGAGGAGGUUUAUCGAAUUUUCGGCGGAUGCCUCCAAA [G7A C16U] yielded a kcat of 7.82e-05 ± 7.7e-05 s⁻¹. AUAAAAGCGACAGAACUACAGAAAUGUAGUUGACGAGGAGGAGGUUUAUCGAAUUUUCGGCGGAUGCCGCCAAA [C10A U69G] was tested, and the kcat was 4.22e-05 ± 3.6e-05 s⁻¹. Work on AUAAAAGCGCCAGUACUACAGAAAUGUAGUUGACGAGGAGGAGGUUUAUCGAAUUUUCGGCGGAUGCCUUCAAA [A14U C70U] yielded a kcat of 0.000847 ± 0.00056 s⁻¹. For AUAAAAGCGCCAGGACUACAGAAAUGUAGUUGACGAGGAAUAGGUUUAUCGAAUUUUCGGCGGAUACCUCCAAA [A14G G40A G41U G66A], the kcat was 0.000815 ± 0.00014 s⁻¹. Work on AUAAAAGCGGCAGAACUACAGAAAUGUAGUUGACGAGGAGGAGGUUUAUCGAAUUGUCUGCGGAUGCCUCCAAA [C10G U56G G59U] yielded a kcat of 4.81e-05 ± 4.4e-05 s⁻¹. In the case of AUAAAAGCGCCAGACAUACAGAAAUGUAGUUGACGAUGAGGAGGUUUAUCGAAUUUUCGGCGGAUGCCUUGAAA [A15C C16A G37U C70U C71G], the kcat is reported as 1.25e-05 ± 2.5e-06 s⁻¹. AUAAAAACGCCAGAACUACAGAAAUGUAGUUGACGAGAAGGAGGUUUAUCGAAUUUUCGGCGUAUGCCUGCAAA [G7A G38A G63U C70G] was tested, and the kcat was 6.39e-05 ± 3.6e-05 s⁻¹. AUAAAAGCGCCAGCACUACAGAAAUGUAGUUGACGAGGAGGAUGUUUAUCGAAUUAUCGGCGGAUGCUUCCAAA [A14C G43U U56A C68U] gave a kcat of 0.000184 ± 9.6e-05 s⁻¹. Work on AUAAAAGCGCCCGAACUACAGAAAUGUAGUUGACGAGGAGGAGGUUUAUCGAAUGUUCGGCGGAUGCCUCCAAA [A12C U55G] yielded a kcat of 0.0339 ± 0.025 s⁻¹. For AUAAAAGCGCCAUAACUACAGAAAUGUAGUUGACGAGGAGGAGGUUUAUCGAAUUUCCGGCGGAUGCCUCCAAA [G13U U57C], the kcat was 4.31e-05 ± 6.8e-06 s⁻¹.

Variants of: B1
Assay: KM; higher = weaker cofactor use; RNA array
Conditions: with glucosamine-6-phosphate
In short: as §1
Variant AUAAAAGCGCCUGAACUACAGAAAUGUAGUUGACGAGGAGGAGGUUUAUCGAAUUAUCGGCGGAUGCCUCCAAA [A12U U56A] has a KM of 3680 ± 2300 µM. AUAAAUGCGCCAGAACUACAGAAAUGUAGAUGACGAGGAGGAGGUUUAUCGAAUUUUCGGCGGAUGCCUCCAAA [A6U U30A] showed a KM of 1060 ± 730 µM. For AUAAACGCGCCAGAACUACAGAAAUGUAGUUGACGAGGGGGAGGUUUAUCGAAUUUUCGGCGGAUGCCUCCAAA [A6C A39G], the KM was 439 ± 33 µM. Variant AUAAAAGCGCCGGAACUACAGAAAUGUAGUUGACGAGGAGGAGGUUUAUCGAAUUUUCGGCGCAUGCCUCCAAA [A12G G63C] has a KM of 438 ± 310 µM. In the case of AUAAAAGCGCCAGGACUACAGAAAUGUAGUUGACGAGGAAUAGGUUUAUCGAAUUUUCGGCGGAUACCUCCAAA [A14G G40A G41U G66A], the KM is reported as 2850 ± 980 µM. AUAAAAGCGCCCGAACUACAGAAAUGUAGUUGACGAGGAGGAGGUUUAUCGAAUGUUCGGCGGAUGCCUCCAAA [A12C U55G] gave a KM of 4590 ± 4500 µM. AUAAAAGCGCCAUAACUACAGAAAUGUAGUUGACGAGGAGGAGGUUUAUCGAAUUUCCGGCGGAUGCCUCCAAA [G13U U57C] was tested, and the KM was 975 ± 620 µM.

Variants of: B1
Assay: self-cleavage kobs at 2500 uM GlcN6P; higher = faster cleavage; RNA array
Conditions: with glucosamine-6-phosphate
In short: as §1
In the case of AUAAAAGCGCCACAACUACAGAAAUGUAGUUCACGAGGAGGAGGUUCAUCGAAUUUUCGGCGGAUGCCUCCAAA [G13C G32C U47C], the “self-cleavage kobs at 2500 uM GlcN6P” value is reported as 6.87e-05 ± 3.4e-05 s⁻¹. With AUAAAUGCGCCAGAACUACAGAAAUGUAGAUGACGAGGAGGAGGUUUAUCGAAUUUUCGGCGGAUGCCUCCAAA [A6U U30A] the “self-cleavage kobs at 2500 uM GlcN6P” value was 2.69e-05 ± 1.5e-05 s⁻¹. In the case of AUAAAAACGCCAGAACUACAGAAAUGUAGUUGACGAGAAGGAGGUUUAUCGAAUUUUCGGCGUAUGCCUGCAAA [G7A G38A G63U C70G], the “self-cleavage kobs at 2500 uM GlcN6P” value is reported as 5.18e-05 ± 3.5e-05 s⁻¹.

Variants of: B1
Assay: self-cleavage kobs at 40 uM GlcN6P; higher = faster cleavage; RNA array
Conditions: with glucosamine-6-phosphate
In short: as §1
In the case of AUAAAAGCGCGAGCACUACAGAAAUGUAGUUGACGAGGAGGAGGUUUAUCGAAUUUUCGGCGGAUGCCACCAAA [C11G A14C U69A], the “self-cleavage kobs at 40 uM GlcN6P” value is reported as 3.3e-05 ± 2e-05 s⁻¹. For AUAAAAGCGCCAGGACUACAGAAAUGUAGUUGACGAGGAAUAGGUUUAUCGAAUUUUCGGCGGAUACCUCCAAA [A14G G40A G41U G66A], the “self-cleavage kobs at 40 uM GlcN6P” value was 3.3e-05 ± 2.2e-05 s⁻¹. For AUAAAAGCGCCAGCACUACAGAAAUGUAGUUGACGAGGAGGAUGUUUAUCGAAUUAUCGGCGGAUGCUUCCAAA [A14C G43U U56A C68U], the “self-cleavage kobs at 40 uM GlcN6P” value was 4.08e-05 ± 2.7e-05 s⁻¹.

Variants of: B1
Assay: self-cleavage kobs at 640 uM GlcN6P; higher = faster cleavage; RNA array
Conditions: with glucosamine-6-phosphate
In short: as §1
For AUAAAAGCGGCAGAACUACAGAAAUGUAGUUGACGAGGAGGAGGUUUAUCGAAUUUUCGGCGGAUGGCUCCAAA [C10G C67G], the “self-cleavage kobs at 640 uM GlcN6P” value was 0.0001 ± 5.8e-05 s⁻¹. AUAAACGCGCCAGAACUACAGAAAUGUAGUUGACGAGGGGGAGGUUUAUCGAAUUUUCGGCGGAUGCCUCCAAA [A6C A39G] was tested, and the “self-cleavage kobs at 640 uM GlcN6P” value was 3.8e-05 ± 2e-05 s⁻¹.

Variants of: B1
Assay: self-cleavage kobs at 10000 uM GlcN6P; higher = faster cleavage; RNA array
Conditions: with glucosamine-6-phosphate
In short: as §1
AUAAAAGCGGCAGAACUACAGAAAUGUAGUUGACGAGGAGGAGGUUUAUCGAAUUGUCUGCGGAUGCCUCCAAA [C10G U56G G59U] was tested, and the “self-cleavage kobs at 10000 uM GlcN6P” value was 2.71e-05 ± 1.9e-05 s⁻¹.
